Experimental data reported in publication PMC9333195, “Discovery of 2-Phenylquinoline-4-Carboxylic Acid Derivatives as Novel Histone Deacetylase Inhibitors” (Frontiers in Chemistry, 2022).

How the values were obtained:
A549 = test: CCK-8 antiproliferative assay, A549; conditions: Homo sapiens, A549, 72 h, read-out: Antiproliferative IC50 A549
MDA-MB-468 = test: CCK-8 antiproliferative assay, MDA-MB-468; conditions: Homo sapiens, MDA-MB-468, 72 h, read-out: Antiproliferative IC50 MDA-MB-468
[1] = tested on: Hela nucleus extract containing a mixture of HDAC isoforms; test: In vitro HDAC inhibitory assay, HeLa cell nuclear extract screening at 2 µM; assay type: biochemical; conditions: 2.0 µM compound, mean of three experiments
Experimental: The HDAC enzyme inhibitory activities of synthesized compounds were evaluated against Hela nucleus extract containing a mixture of HDAC isoforms. Percentage inhibitory rate (PIR) was calculated to determine the activity of tested compounds (Table 1). The compounds (D1-28) were firstly synthesized for the activity screening. […] Compared with the unsubstituted D1, the difluoride-substitution and phenyl substitution can be conducive to the inhibitory activity. […] Similarly, the methyl substitution and methoxy substitution in the phenyl ring reduced the HDAC inhibitory potency. […] To avoid excessive molecular weight and increase the HDAC inhibitory activity, the R group with small size and molecular weight could be reserved for further structural modification.
All HDAC enzymes were purchased from BPS Bioscience. […] After standing for 20 min, the fluorescence intensity was measured at the excitation and emission wavelengths of 360 and 460 nm with a microplate reader. The inhibition rate was calculated from the fluorescence intensity readings of the test wells relative to the control wells, and the IC50 curve and value were determined by GraphPad Prism 6.0 software.

MDA-MB-231 = test: CCK-8 antiproliferative assay, MDA-MB-231; conditions: Homo sapiens, MDA-MB-231, 72 h, read-out: Antiproliferative IC50 MDA-MB-231
MCF-7 = test: CCK-8 antiproliferative assay, MCF-7; conditions: Homo sapiens, MCF7, 72 h, read-out: Antiproliferative IC50 MCF-7
A2780 = test: CCK-8 antiproliferative assay, A2780; conditions: Homo sapiens, A2780, 72 h, read-out: Antiproliferative IC50 A2780
K562 cells = test: CCK-8 antiproliferative assay, K562; conditions: Homo sapiens, K562, read-out: K562 percentage inhibitory rate

Structure (SMILES): O=C(CCCCCCC(=O)Nc1ccccc1)NO [SAHA, Vorinostat, reference compound]
- IC50 (A549): 5.88 ± 0.45 µM
- IC50 (MDA-MB-468): 3.75 ± 0.21 µM
- HDACs percentage inhibitory rate (PIR) [1]: 50.12 ± 0.74%
- IC50 (MDA-MB-231): 4.21 ± 0.35 µM
- IC50 (MCF-7): 5.77 ± 0.15 µM
- IC50 (A2780): 4.56 ± 0.24 µM
- inhibition at 2 µM (K562 cells): 53.07 ± 0.25%
